# Library screen at single concentrations

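Whole-cell growth test on Mycobacterium tuberculosis, read after 4 days in a medium based on cholesterol and the lipid DPPC; the read-out is not stated. Tested at 500 µM. The record gives no direction; compounds that gave an IC50 in retests scored well above the rest, so higher reads as more growth inhibition. About 18,000 compounds were tested under these conditions; 5% (about 900) showed 50% or more at least once.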

The filed quantity is “Percent Effect” (%). The controls that fix the scale are not given in the record; negative values are as filed. Compounds were drawn at random from those tested, without regard to their results.

structure: Brc1ccc(N2CCNCC2)nc1
effect: 30.3%

structure: NCc1cccc(NC(=O)NC2CCOCC2)c1
effect: 9.361%

structure: CC(=O)Cc1ccn(C(C)C)n1
effect: -3.029%

structure: CCCNC(=O)N1CCC2(CC1)OCCO2
effect: 32.46%

structure: NCc1ccc(OCC(=O)Nc2cccnc2)cc1
effect: -17.32%

structure: O=C(NC1CC1)c1ccc(CNC2CC2)cc1
effect: 14.58%

structure: Cc1ccc(SCC(=O)NC(N)=O)nc1
effect: -19.7%

structure: OCCN1CCN(Cc2nc(C3CC3)no2)CC1
effect: 22.39%

structure: CN(CCCC1CCCO1)C(=O)c1ccc(CO)cc1 (stereo not drawn)
effect: -0.425%

structure: O=C(Nc1cccnc1)OCC(F)(F)F
effect: 9.953%

structure: CNC(=O)C(CC(C)C)NC(=O)c1ccccn1 (stereo not drawn)
effect: 6.45%

structure: Nc1ncccc1CN1C[C@@H]2CCC[C@H](C1)C(=O)N2
effect: 8.814%

structure: Cc1cc(CN2CCN(C(=O)N(C)C)CC2)on1
effect: 5.923%

structure: N#CCC(=O)NC1CCN(CC2CCCC2)CC1
effect: -1.41%

structure: Cc1ccc(C(=O)N2CCCC2c2cccs2)c(=O)[nH]1 (stereo not drawn)
effect: 9.319%

structure: CCS(=O)(=O)NCC(C)(C)CNS(=O)(=O)CC
effect: 14.12%

structure: Oc1ccc(CNc2cccc(-c3nnc[nH]3)c2)cc1
effect: 26.25%

structure: CCNC(=O)C1(N)CCCC1
effect: -11.13%

structure: NCCNC(=O)c1ccc(-c2ccc(Cl)cc2)s1
effect: 99.42%

structure: NCCn1cc(C(F)(F)F)ccc1=O
effect: 0.7739%

structure: CN(C)C(=O)OC1CCNCC1
effect: -5.951%

structure: O=C(Nc1cccc(OCC(F)F)n1)NC1CC1
effect: -4.971%

structure: O=C(c1ccc(O)cc1F)N1CCOC2(CCCC2)C1
effect: 19.75%

structure: O=C1CCCN1CCCNCc1cccs1
effect: 3.387%

structure: COc1ccc(CNC(=O)C2(C)CCNCC2)cc1
effect: -16.72%

structure: Cc1ccc(C2CSCCN2)o1 (stereo not drawn)
effect: 1.417%

structure: COC[C@@H](O)CNC1CCOc2c(Br)cccc21 (stereo partly drawn)
effect: 40.06%

structure: O=C1CCCc2nccc(-c3ccncc3)c21
effect: 3.408%

structure: COc1ccc(CCCC(=O)N2CCC(CN)C2)cc1 (stereo not drawn)
effect: 43.61%

structure: CC(C)c1ccc(NC(=O)C2COCCN2C)cc1 (stereo not drawn)
effect: 38.43%

structure: c1c[nH]c(C2CCNC2)n1 (stereo not drawn)
effect: -15.76%

structure: NS(=O)(=O)N1CCC(C(=O)N2CCCCCC2)CC1
effect: -21.68%

structure: Cc1cccc(-c2ccnc(N)n2)c1
effect: -0.6075%

structure: CC(=O)c1ccc(Br)o1
effect: 7.396%

structure: CNC(=O)CS(=O)(=O)Cc1cc(=O)n(C)c(=O)n1C
effect: -2.302%

structure: CCC(C)Oc1cccc(NC(=O)NCCO)c1 (stereo not drawn)
effect: 15.41%

structure: CS(=O)(=O)c1cccc(C(=O)NCCCN)c1
effect: 2.678%

structure: Cn1nccc1CNC1CC1
effect: -0.8033%

structure: CN1CCN(CCNC(=O)c2ccc(Cl)cc2Cl)CC1
effect: 0.9741%

structure: COc1ccccc1NC(=O)c1ccc(C)nc1
effect: 25.24%

structure: Nc1ncnn1-c1ccc(C(F)(F)F)cn1
effect: 17.5%

structure: CCOc1nn(C)cc1N
effect: 19.9%

structure: CC1CCOCCN1C(=O)c1ccoc1Br (stereo not drawn)
effect: -5.05%

structure: CC1CCCN(CCNS(=O)(=O)CCCS(C)(=O)=O)C1 (stereo not drawn)
effect: 10.41%

structure: OCCOCCN1CCC(=Cc2ccccc2)CC1
effect: 34.52%

Some entries from above, unchanged:

| structure | effect |
|---|---|
| `OCCOCCN1CCC(=Cc2ccccc2)CC1` | 34.52% |
| `NCCn1cc(C(F)(F)F)ccc1=O` | 0.7739% |
| `Nc1ncccc1CN1C[C@@H]2CCC[C@H](C1)C(=O)N2` | 8.814% |
| `c1c[nH]c(C2CCNC2)n1` (stereo not drawn) | -15.76% |
| `CCC(C)Oc1cccc(NC(=O)NCCO)c1` (stereo not drawn) | 15.41% |
| `Brc1ccc(N2CCNCC2)nc1` | 30.3% |

Data taken from ChEMBL document CHEMBL3988442, “University of Dundee, Small-Polar-MMV Screening Library” (2021).